Measured values taken from patent US20240190999A1.
Results are given in words; binding and its absence hold for the method and conditions named. Some binding calls cover weakened binding; strength is not graded here.

Amino acid sequences for entries named in this document (tags omitted). A change or cut given only in a name is not applied to a line headed by its entry.
UniProt Q12884: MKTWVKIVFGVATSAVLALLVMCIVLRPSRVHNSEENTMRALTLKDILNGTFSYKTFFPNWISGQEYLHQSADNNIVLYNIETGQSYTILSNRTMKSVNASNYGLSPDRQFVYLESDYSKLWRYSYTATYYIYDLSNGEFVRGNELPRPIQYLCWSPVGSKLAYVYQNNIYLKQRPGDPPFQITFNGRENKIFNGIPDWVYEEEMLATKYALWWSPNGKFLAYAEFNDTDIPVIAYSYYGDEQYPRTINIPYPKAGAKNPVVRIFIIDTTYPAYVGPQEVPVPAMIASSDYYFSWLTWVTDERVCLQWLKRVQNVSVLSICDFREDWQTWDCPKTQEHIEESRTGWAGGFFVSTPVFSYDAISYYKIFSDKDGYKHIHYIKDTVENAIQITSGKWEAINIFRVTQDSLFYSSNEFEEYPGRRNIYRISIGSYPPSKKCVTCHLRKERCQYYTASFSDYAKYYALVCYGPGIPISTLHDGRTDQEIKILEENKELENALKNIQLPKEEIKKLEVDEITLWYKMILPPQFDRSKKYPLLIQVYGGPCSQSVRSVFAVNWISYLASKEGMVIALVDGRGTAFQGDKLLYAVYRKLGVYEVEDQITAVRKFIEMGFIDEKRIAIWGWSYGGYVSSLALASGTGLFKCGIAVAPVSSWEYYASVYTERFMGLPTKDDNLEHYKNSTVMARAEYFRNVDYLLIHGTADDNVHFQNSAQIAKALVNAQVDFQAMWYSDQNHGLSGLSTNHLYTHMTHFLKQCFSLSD
UniProt Q07011: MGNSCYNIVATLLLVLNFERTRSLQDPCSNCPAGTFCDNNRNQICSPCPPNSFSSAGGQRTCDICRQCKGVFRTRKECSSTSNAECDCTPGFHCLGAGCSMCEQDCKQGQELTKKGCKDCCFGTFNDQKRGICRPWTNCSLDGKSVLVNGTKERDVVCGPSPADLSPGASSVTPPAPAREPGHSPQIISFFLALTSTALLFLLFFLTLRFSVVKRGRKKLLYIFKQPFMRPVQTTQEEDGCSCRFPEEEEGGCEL

Experiments:
[1] = molecular target: human fibroblast activation protein (hFAP) (human) (UniProt Q12884); test: SPR (ProteOn XPR36)
[2] = molecular target: biotinylated human 4-1BB (bio.h4-1BB) (human) (UniProt Q07011); test: SPR (ProteOn XPR36)

B1: bispecific construct #45 (designed binder)
chain: MRGSHHHHHHGSDLGEKLLVAALYGQDDEVRILLAAGADVNAKDQWGLTPLHKAALQGHLEIVEVLLKAGADVNAKDERGHTPLHWAARFGHLEIVEVLLKAGADVNAQDQKGYTPADLAALWGHEDIAEVLQKAAGSPTPTPTTPTPTPTTPTPTPTGSDLGDKLLHAAYYGQDDEVRILLAAGADVNAKDTQGLTPLHLAAAIGHLEIVEVLLKAGADVNAKDAYGETPLHLVASRGHLEIVEVLLKAGADVNAQDYSGRTPADLAAEYGHEDIAEVLQKLN
In the case of B1, the binding [1] is reported as “binds” and the binding [2] is reported as “binds”.
